Reference: PubChem BioAssay AID248 (DTP/NCI, 2004)
The list does not hold the whole screen: it is rich in T/C values a quarter to a half above the control, in often repeated tests (any T/C) and in doses without a T/C. Other doses and runs of a compound stand elsewhere. T/C is the treated group as % of the vehicle group. Some doses have a count of surviving animals in place of a T/C: the source files T/C as zero there, which appears to mark a toxic dose or a test without result, not a measured value. Some doses without a T/C left all or most animals alive at the check, yet need not have been tolerated: survival well below the control is almost never listed, so the zero probably covers shortened survival too. Survivors were counted at the toxicity check, usually on the fifth day, unless a day is given; later deaths do not show. Schedules are NCI's codes, taken here to give the interval after Q, in days (D) or hours (H), and the number of doses after X. For survival time, this PubChem deposit counts one and a half times the control or more as active, and values a quarter to a half above the control carry no call in these data; other NCI protocols may use other cut-offs. Some T/C values are followed by the survivors on the day toxicity was checked, most often the fifth; without a count, all were alive then. Some doses were run more than once; the results are listed from low to high.

Tested on: L1210 leukemia ip in BDF1 mice, survival T/C
Assay: NCI In Vivo Anticancer Drug Screen. Data for tumor model L1210 Leukemia (intraperitoneal) in B6D2F1 (BDF1) mice
Conditions: T/C endpoint: mean survival time, higher T/C = longer survival
[1] = dose: 400.0 mg/kg/injection, schedule: Q04DX003 (ip), vehicle: saline with Tween-80

CCOP(=O)(OCC)Oc1cc(C)c(SC#N)c(C)c1
survivor count (dose: 75.0 mg/kg/injection, schedule: Q01DX001 (ip), vehicle: saline): 0 of 6
survivor count (dose: 150.0 mg/kg/injection, schedule: Q01DX001 (ip), vehicle: saline): 0 of 6
survivor count (dose: 300.0 mg/kg/injection, schedule: Q01DX001 (ip), vehicle: saline): 0 of 6

O=C(O)CC1CCCCC1CC(=O)O (stereo not drawn)
T/C (dose: 100.0 mg/kg/injection, schedule: Q04DX002 (ip), vehicle: Klucel (hydroxypropylcellulose) (HPC)): 127 % of control

C1=Nc2c(ccc3ccccc23)CS1
survivor count (dose: 200.0 mg/kg/injection, schedule: Q04DX002 (ip), vehicle: other): 1 of 3
survivor count (dose: 400.0 mg/kg/injection, schedule: Q04DX002 (ip), vehicle: other): 1 of 3

CCCCOC(=O)CNC(=O)N(CC)C(=NCC)c1ccc(NC(=O)c2ccc(C(=O)Nc3ccc(C(=NCC)N(CC)C(=O)NCC(=O)OCCCC)cc3)cc2)cc1
T/C (dose: 3.75 mg/kg/injection, schedule: Q01DX015 (ip), vehicle: methylcellulose (MC)): 130 and 134 % of control [5 of 6 alive]
survivor count (dose: 15.0 mg/kg/injection, schedule: Q01DX015 (ip), vehicle: methylcellulose (MC)): 3 of 6
survivor count (dose: 30.0 mg/kg/injection, schedule: Q01DX015 (ip), vehicle: methylcellulose (MC)): 0 of 6
survivor count (dose: 62.0 mg/kg/injection, schedule: Q01DX015 (ip), vehicle: methylcellulose (MC)): 0 of 6
survivor count (dose: 125.0 mg/kg/injection, schedule: Q01DX015 (ip), vehicle: methylcellulose (MC)): 0 of 6
survivor count (dose: 250.0 mg/kg/injection, schedule: Q01DX015 (ip), vehicle: methylcellulose (MC)): 0 of 6
survivor count (dose: 500.0 mg/kg/injection, schedule: Q01DX015 (ip), vehicle: methylcellulose (MC)): 0 of 6

COc1cc(Nc2c3ccccc3nc3ccccc23)ccc1NS(C)(=O)=O
T/C (dose: 5.0 mg/kg/injection, schedule: Q01DX009 (ip), vehicle: saline with Tween-80): 141 % of control
survivor count (dose: 20.0 mg/kg/injection, schedule: Q01DX009 (ip), vehicle: saline with Tween-80): 9 of 10
survivor count (dose: 40.0 mg/kg/injection, schedule: Q01DX009 (ip), vehicle: saline with Tween-80): 0 of 10

CCCCCCCCCCCCCCCCCC(=O)NCCNC(=O)CCCCCCCCCCCCCCCCC
survivor count (dose: 100.0 mg/kg/injection, schedule: Q04DX003 (ip), vehicle: Klucel (hydroxypropylcellulose) (HPC)): 6 of 6
survivor count (dose: 200.0 mg/kg/injection, schedule: Q04DX003 (ip), vehicle: Klucel (hydroxypropylcellulose) (HPC)): 6 of 6
survivor count (dose: 225.0 mg/kg/injection, schedule: Q01DX009 (ip), vehicle: Klucel (hydroxypropylcellulose) (HPC)): 3 of 6
survivor count (dose: 335.0 mg/kg/injection, schedule: Q01DX009 (ip), vehicle: Klucel (hydroxypropylcellulose) (HPC)): 3 of 66
survivor count (dose: 400.0 mg/kg/injection, schedule: Q04DX003 (ip), vehicle: Klucel (hydroxypropylcellulose) (HPC)): 6 of 6

C/C=C(/Cl)c1c(C)cc(C)cc1C
survivor count (dose: 200.0 mg/kg/injection, schedule: Q01DX009 (ip), vehicle: saline with Tween-80): 6 of 6

CCCCOC(=O)CSSCC(=O)OCCCC
survivor count [1]: 6 of 6

CCCC[n+]1cccc2ccccc21
survivor count (dose: 100.0 mg/kg/injection, schedule: Q01DX001 (ip), vehicle: Klucel (hydroxypropylcellulose) (HPC)): 1 of 6
survivor count (dose: 200.0 mg/kg/injection, schedule: Q01DX001 (ip), vehicle: carboxymethylcellulose (CMC)): 0 of 6
survivor count (dose: 400.0 mg/kg/injection, schedule: Q01DX001 (ip), vehicle: carboxymethylcellulose (CMC)): 0 of 6

O=C(Nc1cccc([N+](=O)[O-])c1)Oc1ccc(-c2ccccc2)cc1
survivor count (dose: 400.0 mg/kg/injection, schedule: Q01DX009 (ip), vehicle: saline with Tween-80): 3 of 3

N#CC(C(=O)c1ccccc1)c1ccccc1 (stereo not drawn)
survivor count (dose: 250.0 mg/kg/injection, schedule: Q04DX002 (ip), vehicle: Klucel (hydroxypropylcellulose) (HPC)): 3 of 3

CC1CC[N-]CC1.CC1CC[N-]CC1.[Br][Pt+2]([Br])([Br])[Br]
survivor count (dose: 25.0 mg/kg/injection, schedule: Q01DX009 (ip), vehicle: saline with Tween-80): 1 of 6
survivor count (dose: 50.0 mg/kg/injection, schedule: Q04DX003 (ip), vehicle: saline with Tween-80): 1 of 6
survivor count (dose: 100.0 mg/kg/injection, schedule: Q04DX003 (ip), vehicle: saline with Tween-80): 1 of 6
survivor count (dose: 200.0 mg/kg/injection, schedule: Q04DX003 (ip), vehicle: saline with Tween-80): 0 of 6
survivor count [1]: 0 of 6
